PubChem BioAssay AID504744 | Drosophila RNAi Screening Center | 2011
Screen: 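Identify dsRNAs that increase or decrease phospho-dAkt after insulin treatment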 (primary screen). Cells: Drosophila Kc167 cells. Reagents: long dsRNA against Drosophila genes, 250 ng dsRNA per well of a 384-well plate. Timing: 3 days of knock-down, then overnight serum-free starvation before stimulation. Conditions: bovine insulin at 387 nM for 10 minutes after 12 h without serum. Read-out: 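In-cell antibody fluorescence for phospho-dAkt in each well over DNA-dye signal, with log2 residuals expressed as z-scores adjusted for cell count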. Rule for the call: 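Under insulin, a gene counts as a hit if the average z-score of two replicates lies above 2.5 or below -2.5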.
The deposit covers about 23,000 reagents; below is an unselected part of those with a known target gene and a result. Over the whole deposit, 98 (0.43%) got an active call. 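Only hit calls are given; the phospho-dAkt signals, z-scores and hit direction were not deposited.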 Names joined by + are all predicted targets of the reagent. No sequences are given here.

no.	target gene	dsRNA	Call
1	CG42304 + Snup	DRSC08276	inactive
2	CG42304 + Snup	DRSC08277	inactive
3	CG42304 + Snup	DRSC22781	inactive
4	CG33506	DRSC05981	inactive
5	CG42390	DRSC15866	inactive
6	CG42634 + CG42635	DRSC02450	inactive
7	CG32369	DRSC10042	inactive
8	CG32369	DRSC10834	inactive
9	CG9682	DRSC16536	inactive
10	CG18301	DRSC02662	inactive
11	Vps16A (Vacuolar protein sorting 16A)	DRSC16422	inactive
12	CG9346	DRSC04542	inactive
13	CG14096	DRSC10099	inactive
14	CG9799	DRSC16567	inactive
15	CG34168	DRSC01938	inactive
16	H (Hairless)	DRSC16692	inactive
17	CG14756	DRSC06491	inactive
18	CG32023	DRSC08946	inactive
19	Sdc (Syndecan)	DRSC04654	inactive
20	Spag1 (Spag1 axonemal dynein assembly factor)	DRSC15331	inactive
21	sisA	DRSC20374	inactive
22	CG34324	DRSC19502	inactive
23	CG14694	DRSC14917	inactive
24	RpL24-like (Ribosomal protein L24-like)	DRSC16111	inactive
25	Hmt-1 (Heavy metal tolerance factor 1)	DRSC15555	inactive
26	hpRNA:CR32207 (hairpin RNA:CR32207)	DRSC09616	inactive
27	Nepl16 (Neprilysin-like 16)	DRSC14650	inactive
28	Hs3st-B (Heparan sulfate 3-O sulfotransferase-B)	DRSC20067	inactive
29	CG3008	DRSC00560	inactive
30	CG15478	DRSC18057	inactive
31	Cul6 (Cullin 6)	DRSC09830	inactive
32	Madm (MLF1-adaptor molecule)	DRSC12129	inactive
33	Fnta (Farnesyl transferase alpha subunit)	DRSC00557	inactive
34	Ccdc114 (Coiled-coil domain containing protein 114)	DRSC15025	inactive
35	Pkc98E (Protein C kinase 98E)	DRSC16791	inactive
36	CG15293	DRSC01919	inactive
37	CG6729	DRSC02984	inactive
38	CG6729	DRSC22793	inactive
39	CG17782	DRSC15267	inactive
40	CG15711	DRSC06582	inactive
41	Gr8a (Gustatory receptor 8a)	DRSC18043	inactive
42	CG14105	DRSC10107	inactive
43	Spn88Ea (Serpin 88Ea)	DRSC17061	inactive
44	hdly (hadley)	DRSC15849	inactive
45	Obp56c (Odorant-binding protein 56c)	DRSC06552	inactive
46	Obp56c (Odorant-binding protein 56c)	DRSC22325	inactive
47	CG34282	DRSC16298	inactive
48	CG15879	DRSC08487	inactive
49	KFase (Kynurenine formamidase)	DRSC03258	inactive
50	gbb (glass bottom boat)	DRSC04687	inactive
51	CG3358	DRSC04992	inactive
52	Oli (Olig family)	DRSC02866	inactive
53	CG1889	DRSC18195	inactive
54	Hyccin	DRSC06983	inactive
55	CG31373	DRSC16052	inactive
56	CG7484	DRSC10853	inactive
57	CG8001	DRSC08611	inactive
58	CG3494	DRSC04375	inactive
59	RpS3A (Ribosomal protein S3A)	DRSC17168	inactive
60	CG9673	DRSC20202	inactive
61	Pof (Painting of fourth)	DRSC04405	inactive
62	CG11414	DRSC04110	inactive
63	Cmpk (Cytidine/uridine monophosphate kinase 1)	DRSC16643	inactive
64	lncRNA:roX2 (long non-coding RNA on the X 2)	DRSC22237	inactive
65	ppk24 (pickpocket 24)	DRSC15093	inactive
66	Dpit47 (DNA polymerase interacting tpr containing protein of 47kD)	DRSC04985	inactive
67	slp1 (sloppy paired 1)	DRSC00835	inactive
68	Aven (Apoptosis and caspase activation inhibitor)	DRSC19693	inactive
69	Pdh (Photoreceptor dehydrogenase)	DRSC11249	inactive
70	Vha44 (Vacuolar H[+] ATPase 44kD subunit)	DRSC07572	inactive
71	Vha44 (Vacuolar H[+] ATPase 44kD subunit)	DRSC07573	inactive
72	miple1 (midkine and pleiotrophin 1)	DRSC08722	inactive
73	peo (pendolino)	DRSC05995	inactive
74	Lint-1 (l(3)mbt interacting protein 1)	DRSC19822	inactive
75	rdx (roadkill)	DRSC14526	inactive
76	rdx (roadkill)	DRSC16580	inactive
77	CG14963	DRSC08422	inactive
78	Aduk (Another Drosophila Unc-51-like kinase)	DRSC16451	inactive
79	Dlish (Dachs ligand with SH3s)	DRSC06016	inactive
80	CG13078	DRSC02182	inactive
81	bbg (big bang)	DRSC11077	inactive
82	bbg (big bang)	DRSC11079	inactive
83	CG32982	DRSC01059	inactive
84	CG32982	DRSC02677	inactive
85	CG32982	DRSC03268	inactive
86	CG32982	DRSC03269	inactive
87	CG32982	DRSC21912	inactive
88	Adi1 (Acireductone dioxygenase 1)	DRSC10945	inactive
89	Adi1 (Acireductone dioxygenase 1)	DRSC21485	inactive
90	yuri (yuri gagarin)	DRSC01453	inactive
91	yuri (yuri gagarin)	DRSC01454	inactive
92	yuri (yuri gagarin)	DRSC01943	inactive
93	yuri (yuri gagarin)	DRSC01972	inactive
94	Mur89F (Mucin related 89F)	DRSC15544	inactive
95	mthl1 (methuselah-like 1)	DRSC19905	inactive
96	arx (asterix)	DRSC10386	inactive
97	CG2921	DRSC04324	inactive
98	CG13426	DRSC06388	inactive
99	Bka (Bekka)	DRSC02757	inactive
100	CG4880	DRSC19923	inactive
101	Su(z)12	DRSC11293	inactive
102	CG17707	DRSC20650	inactive
103	CheB42c (Chemosensory protein B 42c)	DRSC04972	inactive
104	Est-P (Esterase P)	DRSC11163	inactive
105	p (pink)	DRSC16560	inactive
106	nAChRbeta1 (nicotinic Acetylcholine Receptor beta1)	DRSC08097	inactive
107	nAChRbeta1 (nicotinic Acetylcholine Receptor beta1)	DRSC08728	inactive
108	CG3597	DRSC00617	inactive
109	Ekar (Eye-enriched kainate receptor)	DRSC17161	inactive
110	CG31279	DRSC13158	inactive
111	CG14645	DRSC12231	inactive
112	CG7728	DRSC10907	inactive
113	santa-maria	DRSC00994	inactive
114	santa-maria	DRSC02180	inactive
115	CG14132	DRSC10136	inactive
116	Bace (beta-site APP-cleaving enzyme)	DRSC02197	inactive
117	Atx2 (Ataxin-2)	DRSC15727	inactive
118	Nf-YA (Nuclear factor Y-box A)	DRSC10385	inactive
119	Tep3 (Thioester-containing protein 3)	DRSC03452	inactive
120	CG7101	DRSC20023	inactive
121	CG7101	DRSC22845	inactive
122	CG17294	DRSC02596	inactive
123	Ubc6 (Ubiquitin conjugating enzyme 6)	DRSC12370	inactive
124	CG5768	DRSC15870	inactive
125	CG15580	DRSC12266	inactive
126	CG17219	DRSC00486	inactive
127	RhoGAP71E (Rho GTPase activating protein at 71E)	DRSC10232	inactive
128	RhoGAP71E (Rho GTPase activating protein at 71E)	DRSC10837	inactive
129	RhoGAP71E (Rho GTPase activating protein at 71E)	DRSC10838	inactive
130	Hr51 (Hormone receptor 51)	DRSC06627	inactive
131	Hr51 (Hormone receptor 51)	DRSC22829	inactive
132	corn (cornetto)	DRSC11021	inactive
133	corn (cornetto)	DRSC21943	inactive
134	UGP + PGRP-LF	DRSC10418	inactive
135	lva (lava lamp)	DRSC18403	inactive
136	CG10183	DRSC14203	inactive
137	CG11134	DRSC19384	inactive
138	Alr (Augmenter of liver regeneration)	DRSC19469	inactive
139	Tsp66A + CG42661 + CG42660	DRSC10233	inactive
140	veg (retired record)	DRSC07714	inactive
141	hep (hemipterous)	DRSC19839	inactive
142	hep (hemipterous)	DRSC20337	inactive
143	Mtpbeta (Mitochondrial trifunctional protein beta subunit)	DRSC04663	inactive
144	dac (dachshund)	DRSC03518	inactive
145	CG10730	DRSC02102	inactive
146	geminin	DRSC04984	inactive
147	CG10383	DRSC02050	inactive
148	CG30278	DRSC22787	inactive
149	CG12842 (retired record)	DRSC06188	inactive
150	Faa (Fumarylacetoacetase)	DRSC08451	inactive
151	agt (O-6-alkylguanine-DNA alkyltransferase)	DRSC12611	inactive
152	CG33306	DRSC01899	inactive
153	Zw (Zwischenferment)	DRSC20303	inactive
154	Plod (procollagen lysyl hydroxylase)	DRSC10601	inactive
155	Plod (procollagen lysyl hydroxylase)	DRSC10602	inactive
156	CG33189	DRSC21427	inactive
157	slp2 (sloppy paired 2)	DRSC00836	inactive
158	Sptr (Sepiapterin reductase)	DRSC18719	inactive
159	Pk34A (Protein kinase at 34A)	DRSC03398	inactive
160	Tie (Tie-like receptor tyrosine kinase)	DRSC08104	inactive
161	Tie (Tie-like receptor tyrosine kinase)	DRSC08702	inactive
162	CG30122	DRSC06776	inactive
163	CG30122	DRSC06935	inactive
164	Qsox2 (Quiescin sulfhydryl oxidase 2)	DRSC15287	inactive
165	w-cup (world cup)	DRSC03048	inactive
166	CG15084	DRSC06515	inactive
167	CG15084	DRSC21403	inactive
168	cos (costa)	DRSC07598	inactive
169	CG42717	DRSC09411	inactive
170	Ankle2	DRSC20105	inactive
171	Ankle2	DRSC20106	inactive
172	Sirt4 (Sirtuin 4)	DRSC18290	inactive
173	Naa30A (N(alpha)-acetyltransferase 30 A)	DRSC18583	inactive
174	Sardh (Sarcosine dehydrogenase)	DRSC06981	inactive
175	CG4074 + CG4186	DRSC11753	inactive
176	NC2alpha (Negative Cofactor 2alpha)	DRSC04059	inactive
177	l(2)34Fc (lethal (2) 34Fc)	DRSC01910	inactive
178	Osi3 (Osiris 3)	DRSC12175	inactive
179	dlg1 (discs large 1)	DRSC18895	inactive
180	dlg1 (discs large 1)	DRSC18896	inactive
181	dlg1 (discs large 1)	DRSC19767	inactive
182	dlg1 (discs large 1)	DRSC20324	inactive
183	geko	DRSC10044	inactive
184	geko	DRSC10045	inactive
185	Zaf1 (ZAD and Architectural Function 1)	DRSC16121	inactive
186	Atg18b (Autophagy-related 18b)	DRSC03108	inactive
187	CG13272	DRSC02249	inactive
188	CG13272	DRSC22910	inactive
189	eag (ether a go-go)	DRSC19067	inactive
190	eag (ether a go-go)	DRSC20328	inactive
191	CG14731	DRSC14952	inactive
192	Cyt-b5 (Cytochrome b5)	DRSC07392	inactive
193	TrpA1 (Transient receptor potential cation channel A1)	DRSC10544	inactive
194	CG30394	DRSC04074	inactive
195	CG30394	DRSC04260	inactive
196	CG31826	DRSC03357	inactive
197	CG32718	DRSC17538	inactive
198	AstCC (Allatostatin double C)	DRSC02404	inactive
199	CG13502	DRSC04147	inactive
200	Sirup (Starvation-upregulated protein)	DRSC03031	inactive

A run of entries of the results above, as a working copy:
no.	target gene	dsRNA	Call
33	Fnta (Farnesyl transferase alpha subunit)	DRSC00557	inactive
34	Ccdc114 (Coiled-coil domain containing protein 114)	DRSC15025	inactive
35	Pkc98E (Protein C kinase 98E)	DRSC16791	inactive
36	CG15293	DRSC01919	inactive
37	CG6729	DRSC02984	inactive
38	CG6729	DRSC22793	inactive
39	CG17782	DRSC15267	inactive
40	CG15711	DRSC06582	inactive
41	Gr8a (Gustatory receptor 8a)	DRSC18043	inactive
42	CG14105	DRSC10107	inactive
43	Spn88Ea (Serpin 88Ea)	DRSC17061	inactive
44	hdly (hadley)	DRSC15849	inactive
45	Obp56c (Odorant-binding protein 56c)	DRSC06552	inactive
46	Obp56c (Odorant-binding protein 56c)	DRSC22325	inactive
